From article PMC12845422, “Characterization of a Novel Family of Contilisant + Belinostat Multitarget Small Molecules in Glioblastoma” (Pharmaceuticals, 2025)

Test system: GNS166 cells
Assay: RNAseq profiling
Type: cell-based
Conditions: 5 µM, fold-change cutoff > 4, p-value < 0.01

O=C(/C=C/c1cccc(S(=O)(=O)n2ccc3cc(OCCCN4CCCCC4)ccc32)c1)NO [MTP150]
downregulated genes (RNAseq): 209 | upregulated genes (RNAseq): 2205
